Results taken from article PMC6414199, “Bim escapes displacement by BH3-mimetic anti-cancer drugs by double-bolt locking both Bcl-XL and Bcl-2” (eLife, 2019).
Results are given in words; binding and its absence hold for the method and conditions named. Binding seen in cells or lysates may run through a third protein. Some binding calls cover weakened binding; strength is not graded here.

Amino acid sequences for entries named in this document (tags omitted).
UniProt Q07817: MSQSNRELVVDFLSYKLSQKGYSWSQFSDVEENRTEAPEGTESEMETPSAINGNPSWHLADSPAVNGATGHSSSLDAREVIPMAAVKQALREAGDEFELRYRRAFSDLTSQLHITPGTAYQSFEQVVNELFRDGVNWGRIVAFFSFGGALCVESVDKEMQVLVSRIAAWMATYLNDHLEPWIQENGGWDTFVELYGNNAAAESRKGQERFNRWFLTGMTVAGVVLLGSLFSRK

Target: mCerulean3-Bcl-XL (human) (UniProt Q07817)
Experiment: FRET or BRET; FLIM-FRET in live BMK-DKO (Bax and Bak knockout) cells expressing mCer3-Bcl-XL, Venus-tagged BH3 protein transiently expressed; untreated, DMSO or 20 uM ABT-263

Venus-BimEL (from UniProt O54918-1 1-196)
binding: binds
